The supplement of paper PMC11732987, “Enantioselective OTUD7B fragment discovery through chemoproteomics screening and high-throughput optimisation” (Communications Chemistry, 2025)
Some of the results follow. The data scatter; read single values as rough.

By UniProt entry, the sequences of proteins in these tests, tags left out. Where a name states a change or a piece, a line headed by the entry shows the natural chain unless it says otherwise. Residues count along the entry.
UniProt Q14566: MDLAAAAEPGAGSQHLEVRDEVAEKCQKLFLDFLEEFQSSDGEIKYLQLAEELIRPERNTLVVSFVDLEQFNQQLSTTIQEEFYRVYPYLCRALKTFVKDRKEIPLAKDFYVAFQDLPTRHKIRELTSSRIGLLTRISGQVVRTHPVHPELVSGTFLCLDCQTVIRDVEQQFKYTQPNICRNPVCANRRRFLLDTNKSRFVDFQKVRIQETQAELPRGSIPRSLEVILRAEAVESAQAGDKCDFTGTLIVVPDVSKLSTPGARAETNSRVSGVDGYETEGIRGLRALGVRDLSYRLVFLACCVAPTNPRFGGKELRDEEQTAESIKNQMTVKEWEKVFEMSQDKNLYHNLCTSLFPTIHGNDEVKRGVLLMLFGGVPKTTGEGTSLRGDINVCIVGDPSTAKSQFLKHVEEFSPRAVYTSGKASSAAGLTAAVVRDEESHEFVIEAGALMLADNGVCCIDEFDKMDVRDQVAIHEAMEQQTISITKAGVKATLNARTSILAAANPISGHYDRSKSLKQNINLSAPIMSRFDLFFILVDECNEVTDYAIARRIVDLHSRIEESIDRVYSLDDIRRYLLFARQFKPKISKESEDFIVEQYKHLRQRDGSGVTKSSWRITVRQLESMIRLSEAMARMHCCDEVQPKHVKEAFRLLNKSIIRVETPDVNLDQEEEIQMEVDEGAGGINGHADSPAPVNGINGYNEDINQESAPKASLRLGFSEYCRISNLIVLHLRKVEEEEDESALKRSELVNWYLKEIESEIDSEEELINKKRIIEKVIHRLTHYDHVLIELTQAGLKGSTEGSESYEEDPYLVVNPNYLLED
UniProt Q99698: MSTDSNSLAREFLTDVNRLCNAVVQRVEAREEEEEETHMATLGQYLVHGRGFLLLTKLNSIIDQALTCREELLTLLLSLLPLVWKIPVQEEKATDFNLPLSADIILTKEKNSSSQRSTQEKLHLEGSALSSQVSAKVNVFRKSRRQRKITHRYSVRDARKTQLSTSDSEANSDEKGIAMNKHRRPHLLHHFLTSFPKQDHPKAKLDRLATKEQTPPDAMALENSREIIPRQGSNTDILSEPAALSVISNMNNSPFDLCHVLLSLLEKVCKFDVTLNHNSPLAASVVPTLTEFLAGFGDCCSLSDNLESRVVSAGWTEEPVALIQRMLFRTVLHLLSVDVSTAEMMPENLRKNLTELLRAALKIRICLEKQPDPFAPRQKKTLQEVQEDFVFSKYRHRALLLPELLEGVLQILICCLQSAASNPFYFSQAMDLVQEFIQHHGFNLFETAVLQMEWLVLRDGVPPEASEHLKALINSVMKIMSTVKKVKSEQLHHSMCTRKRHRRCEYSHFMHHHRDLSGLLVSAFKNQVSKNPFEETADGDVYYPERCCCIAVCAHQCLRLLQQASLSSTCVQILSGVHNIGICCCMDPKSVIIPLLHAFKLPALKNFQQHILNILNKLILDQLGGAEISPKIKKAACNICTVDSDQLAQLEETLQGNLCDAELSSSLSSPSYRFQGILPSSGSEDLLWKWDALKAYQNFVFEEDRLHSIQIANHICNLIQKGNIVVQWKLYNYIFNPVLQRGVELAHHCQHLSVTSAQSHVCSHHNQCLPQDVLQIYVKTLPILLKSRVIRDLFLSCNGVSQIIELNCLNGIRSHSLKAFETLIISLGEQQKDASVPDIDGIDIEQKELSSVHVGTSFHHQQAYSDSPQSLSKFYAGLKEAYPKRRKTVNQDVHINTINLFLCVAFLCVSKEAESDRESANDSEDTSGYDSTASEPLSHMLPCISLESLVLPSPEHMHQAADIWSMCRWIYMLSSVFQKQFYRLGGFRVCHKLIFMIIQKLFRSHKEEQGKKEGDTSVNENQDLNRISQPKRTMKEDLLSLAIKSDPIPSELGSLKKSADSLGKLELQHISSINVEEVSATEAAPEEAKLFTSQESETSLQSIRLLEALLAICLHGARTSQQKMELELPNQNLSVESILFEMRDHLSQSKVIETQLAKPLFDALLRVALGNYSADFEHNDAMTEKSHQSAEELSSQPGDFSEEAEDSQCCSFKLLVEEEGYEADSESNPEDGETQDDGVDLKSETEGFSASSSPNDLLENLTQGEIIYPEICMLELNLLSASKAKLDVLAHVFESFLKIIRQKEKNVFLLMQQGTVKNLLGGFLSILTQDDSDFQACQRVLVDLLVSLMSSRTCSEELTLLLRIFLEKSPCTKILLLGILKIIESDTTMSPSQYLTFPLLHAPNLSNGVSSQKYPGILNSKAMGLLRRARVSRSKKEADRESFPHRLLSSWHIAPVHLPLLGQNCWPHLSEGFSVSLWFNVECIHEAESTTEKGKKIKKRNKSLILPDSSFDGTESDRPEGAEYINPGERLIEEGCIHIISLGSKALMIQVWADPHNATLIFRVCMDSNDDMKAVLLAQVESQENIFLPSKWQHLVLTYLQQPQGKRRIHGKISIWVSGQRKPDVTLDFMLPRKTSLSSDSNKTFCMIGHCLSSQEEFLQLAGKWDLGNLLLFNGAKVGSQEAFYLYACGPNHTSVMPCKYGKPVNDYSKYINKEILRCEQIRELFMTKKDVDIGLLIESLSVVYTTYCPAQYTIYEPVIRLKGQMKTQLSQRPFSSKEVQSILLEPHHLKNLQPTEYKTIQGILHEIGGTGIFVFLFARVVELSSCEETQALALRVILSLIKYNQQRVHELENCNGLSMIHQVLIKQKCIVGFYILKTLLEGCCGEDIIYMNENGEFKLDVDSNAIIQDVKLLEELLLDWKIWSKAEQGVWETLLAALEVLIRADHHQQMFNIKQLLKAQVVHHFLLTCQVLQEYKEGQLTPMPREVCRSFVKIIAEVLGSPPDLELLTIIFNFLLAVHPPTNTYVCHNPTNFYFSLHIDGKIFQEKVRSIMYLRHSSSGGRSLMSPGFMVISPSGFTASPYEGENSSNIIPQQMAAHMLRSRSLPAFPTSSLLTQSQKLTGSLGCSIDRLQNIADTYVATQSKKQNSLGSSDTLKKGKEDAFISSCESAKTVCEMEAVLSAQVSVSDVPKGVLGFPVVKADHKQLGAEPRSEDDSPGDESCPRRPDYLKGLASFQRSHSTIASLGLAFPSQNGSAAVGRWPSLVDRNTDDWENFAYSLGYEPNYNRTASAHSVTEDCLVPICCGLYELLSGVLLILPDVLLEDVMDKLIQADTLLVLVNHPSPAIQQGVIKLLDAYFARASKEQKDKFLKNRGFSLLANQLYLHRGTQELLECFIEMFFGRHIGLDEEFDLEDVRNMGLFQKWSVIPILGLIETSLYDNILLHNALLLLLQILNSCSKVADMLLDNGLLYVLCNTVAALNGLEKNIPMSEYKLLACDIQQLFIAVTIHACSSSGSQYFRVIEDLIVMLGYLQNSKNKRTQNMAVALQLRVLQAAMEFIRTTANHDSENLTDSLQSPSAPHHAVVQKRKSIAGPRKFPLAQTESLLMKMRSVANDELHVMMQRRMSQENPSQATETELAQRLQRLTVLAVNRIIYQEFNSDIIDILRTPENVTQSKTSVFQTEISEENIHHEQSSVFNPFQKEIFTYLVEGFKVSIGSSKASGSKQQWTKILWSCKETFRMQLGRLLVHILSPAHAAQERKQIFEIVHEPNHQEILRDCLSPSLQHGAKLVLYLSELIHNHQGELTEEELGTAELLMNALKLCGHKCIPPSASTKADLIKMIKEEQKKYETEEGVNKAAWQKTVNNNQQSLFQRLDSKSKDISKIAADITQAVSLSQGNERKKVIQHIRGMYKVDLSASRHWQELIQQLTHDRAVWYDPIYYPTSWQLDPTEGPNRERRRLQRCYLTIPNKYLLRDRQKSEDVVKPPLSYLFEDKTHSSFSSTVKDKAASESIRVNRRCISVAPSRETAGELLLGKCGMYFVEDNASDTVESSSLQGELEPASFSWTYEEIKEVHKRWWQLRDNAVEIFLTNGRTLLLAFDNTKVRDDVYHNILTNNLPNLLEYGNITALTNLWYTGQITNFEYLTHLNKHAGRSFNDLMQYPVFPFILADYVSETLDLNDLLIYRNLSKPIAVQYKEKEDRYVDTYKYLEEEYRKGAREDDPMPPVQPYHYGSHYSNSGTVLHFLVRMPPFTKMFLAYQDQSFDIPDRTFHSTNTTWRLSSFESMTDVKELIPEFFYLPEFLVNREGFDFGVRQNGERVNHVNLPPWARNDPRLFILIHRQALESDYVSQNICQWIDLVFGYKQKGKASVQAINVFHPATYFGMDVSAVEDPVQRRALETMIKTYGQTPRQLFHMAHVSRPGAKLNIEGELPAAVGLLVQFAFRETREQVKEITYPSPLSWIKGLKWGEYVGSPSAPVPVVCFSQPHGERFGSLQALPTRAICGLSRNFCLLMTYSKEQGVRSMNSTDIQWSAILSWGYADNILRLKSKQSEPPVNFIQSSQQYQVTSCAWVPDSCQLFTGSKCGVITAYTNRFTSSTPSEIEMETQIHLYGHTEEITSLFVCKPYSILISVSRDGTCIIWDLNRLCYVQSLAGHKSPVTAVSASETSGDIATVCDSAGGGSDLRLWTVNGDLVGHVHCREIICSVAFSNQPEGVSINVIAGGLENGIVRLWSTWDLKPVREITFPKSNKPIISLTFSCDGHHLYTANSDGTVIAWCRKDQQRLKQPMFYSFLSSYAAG
UniProt Q9Y4Z0: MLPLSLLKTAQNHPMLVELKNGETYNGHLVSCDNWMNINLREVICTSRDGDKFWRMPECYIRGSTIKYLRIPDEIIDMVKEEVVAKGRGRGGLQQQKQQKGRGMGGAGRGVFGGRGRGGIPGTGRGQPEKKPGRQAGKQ
UniProt Q9UFC0, 248-272: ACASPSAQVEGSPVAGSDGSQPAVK
UniProt O60318, 420-440: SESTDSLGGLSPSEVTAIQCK
UniProt P49736: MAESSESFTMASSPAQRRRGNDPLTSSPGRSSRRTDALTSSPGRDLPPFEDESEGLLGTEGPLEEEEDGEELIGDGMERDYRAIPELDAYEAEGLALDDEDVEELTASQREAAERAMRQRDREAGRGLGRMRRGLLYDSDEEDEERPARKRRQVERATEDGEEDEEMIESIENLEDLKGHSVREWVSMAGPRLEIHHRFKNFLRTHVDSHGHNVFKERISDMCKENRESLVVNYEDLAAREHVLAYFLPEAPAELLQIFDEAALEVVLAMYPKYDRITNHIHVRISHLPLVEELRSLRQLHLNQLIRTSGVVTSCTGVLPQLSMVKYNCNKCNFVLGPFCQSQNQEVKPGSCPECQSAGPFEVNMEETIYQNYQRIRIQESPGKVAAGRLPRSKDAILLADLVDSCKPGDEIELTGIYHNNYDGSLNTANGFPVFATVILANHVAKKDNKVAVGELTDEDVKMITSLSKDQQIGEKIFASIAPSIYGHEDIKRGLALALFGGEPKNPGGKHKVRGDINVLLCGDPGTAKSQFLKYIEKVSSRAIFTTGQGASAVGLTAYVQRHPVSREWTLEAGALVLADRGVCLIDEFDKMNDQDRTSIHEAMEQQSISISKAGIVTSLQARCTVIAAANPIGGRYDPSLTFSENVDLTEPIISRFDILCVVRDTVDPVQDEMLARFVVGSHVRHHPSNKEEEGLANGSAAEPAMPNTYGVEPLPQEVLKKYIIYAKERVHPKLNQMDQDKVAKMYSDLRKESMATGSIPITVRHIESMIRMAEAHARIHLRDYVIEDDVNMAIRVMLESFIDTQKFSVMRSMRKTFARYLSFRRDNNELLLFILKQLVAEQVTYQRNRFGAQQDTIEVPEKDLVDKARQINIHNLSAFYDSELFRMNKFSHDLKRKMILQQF
UniProt P33991: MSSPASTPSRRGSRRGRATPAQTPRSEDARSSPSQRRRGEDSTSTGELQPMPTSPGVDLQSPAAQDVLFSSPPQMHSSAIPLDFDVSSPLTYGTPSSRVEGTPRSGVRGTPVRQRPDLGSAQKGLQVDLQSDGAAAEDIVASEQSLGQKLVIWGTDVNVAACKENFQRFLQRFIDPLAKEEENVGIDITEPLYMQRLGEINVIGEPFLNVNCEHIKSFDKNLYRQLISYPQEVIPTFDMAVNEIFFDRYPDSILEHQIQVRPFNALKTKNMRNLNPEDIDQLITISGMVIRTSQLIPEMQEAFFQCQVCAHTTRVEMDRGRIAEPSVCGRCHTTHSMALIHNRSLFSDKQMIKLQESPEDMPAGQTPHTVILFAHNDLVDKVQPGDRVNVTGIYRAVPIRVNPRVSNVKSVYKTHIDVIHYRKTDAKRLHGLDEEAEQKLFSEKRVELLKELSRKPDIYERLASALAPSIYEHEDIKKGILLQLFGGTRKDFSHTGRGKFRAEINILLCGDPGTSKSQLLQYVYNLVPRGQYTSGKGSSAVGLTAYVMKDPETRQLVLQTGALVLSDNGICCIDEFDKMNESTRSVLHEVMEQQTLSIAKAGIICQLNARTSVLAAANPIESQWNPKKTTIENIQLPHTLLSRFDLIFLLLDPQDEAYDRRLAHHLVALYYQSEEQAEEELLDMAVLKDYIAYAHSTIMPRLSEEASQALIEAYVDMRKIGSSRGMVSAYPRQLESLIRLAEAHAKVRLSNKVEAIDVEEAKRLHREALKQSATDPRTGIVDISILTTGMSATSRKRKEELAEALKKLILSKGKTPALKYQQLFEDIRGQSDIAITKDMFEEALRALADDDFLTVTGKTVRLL
UniProt Q96GX5, 297-322: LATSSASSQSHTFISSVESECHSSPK

What was measured:
[1] = compound: ClCC(=O)N[C@@H]1CCCc2ccccc12; experiment: log2 mean competition ratio of IA-DTB cysteine labelling (DMSO/compound) (log2 ratio); higher = stronger cysteine engagement by compound; conditions: treatment time: 4 h, cell line lysate: HEK293T
Experimental: (§1)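 IA-DTB competitive cysteine chemoproteomics in HEK293T RIPA lysate. Lysates were treated with compound 29 or 30 at 50 or 200 µM for 4 h, then IA-DTB (500 µM, 1 h), trypsin-digested, NeutrAvidin-enriched and analysed by diaPASEF. Competition ratio = intensity DMSO / intensity compound (n=4 treated, n=64 DMSO); binding: mean log2 CR ≥ 1 and p ≤ 0.05 plus QC filters. Target is the cysteine site.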

[2] = compound: ClCC(=O)N[C@H]1CCCc2ccccc12; experiment: as above; conditions: treatment time: 4 h, cell line lysate: HEK293T
Experimental: as §1

| Target | log2 mean competition ratio ([1]; 50 µM) | log2 mean competition ratio ([1]; 200 µM) | log2 mean competition ratio ([2]; 50 µM) | log2 mean competition ratio ([2]; 200 µM) |
| --- | --- | --- | --- | --- |
| MAFF C68 (UniProt Q9ULX9) | 0.0518 | 0.158 | 0.0131 | 0.216 |
| MCC C202 (UniProt P23508) | -0.141 | 0.185 | -0.404 | 0.122 |
| MAGI1 C1065 | 0.359 | 0.136 | -0.0845 | 0.165 |
| MAP7D1 C373 (UniProt Q3KQU3) | 0.15 | 0.0158 | 0.312 | 0.0951 |
| MCM6 C180 (UniProt Q14566) | -0.0482 | -0.0593 | 0.198 | 0.0257 |
| MACF1 C4388 | -0.149 | -0.114 | -0.0189 | -0.0739 |
| MATK C53 (UniProt P42679) | 0.061 | -0.189 | -0.127 | -0.201 |
| LYST C2168 (UniProt Q99698) | 0.235 | -0.125 | -0.207 | 0.433 |
| LRRC8C C571 | 0.0294 | 0.00744 | -0.0053 | -0.0183 |
| MCMBP C249 (UniProt Q9BTE3) | 0.0774 | -0.304 | -0.00808 | -0.125 |
| MAP1A C2191 (UniProt P78559) | 0.572 | -0.0622 | 1.03 | 0.227 |
| LSM4 C45 (UniProt Q9Y4Z0) | 0.0185 | 0.0437 | -0.047 | 0.0988 |
| MAP3K4 C596 (UniProt Q9Y6R4) | -0.0763 | -0.0458 | -0.201 | -0.0259 |
| LRRC1 C104 | 0.222 | 0.029 | 0.0325 | 0.218 |
| MAP4 C635 | 0.0159 | -0.0188 | 0.0443 | -0.00586 |
| MAK16 C44 (UniProt Q9BXY0) | 0.0678 | -0.138 | -0.0942 | -0.16 |
| LTBP3 C289 | -0.0514 | 0.146 | -0.0394 | -0.0854 |
| LRWD1 C249 (UniProt Q9UFC0) | -0.0567 | 0.23 | -0.118 | -0.0983 |
| MAP3K20 C231 (UniProt Q9NYL2) | 0.00856 | -0.362 | 0.443 | -0.253 |
| MCM3AP C274 (UniProt O60318) | -0.395 | -0.139 | 0.555 | -0.031 |
| MAZ C371 (UniProt P56270) | -0.239 | 0.211 | -0.14 | 0.0256 |
| MAP4K3 C509 (UniProt Q8IVH8) | 0.0544 | 0.0401 | -0.157 | 0.209 |
| LSS C609 (UniProt P48449) | -0.215 | -0.0518 | -0.274 | 0.0483 |
| MCM2 C522 (UniProt P49736) | -0.26 | -0.157 | -0.284 | -0.109 |
| MCMBP C239 (UniProt Q9BTE3) | -0.11 | -0.0356 | 0.0414 | -0.0631 |

| Target | log2 mean competition ratio ([1]; 50 µM) | log2 mean competition ratio ([1]; 200 µM) | log2 mean competition ratio ([2]; 50 µM) | log2 mean competition ratio ([2]; 200 µM) |
| --- | --- | --- | --- | --- |
| LRRFIP1 C456 (UniProt Q32MZ4) | 0.0611 | -0.041 | 0.0539 | -0.167 |
| MAP2K7 C280 (UniProt O14733) | 0.353 | 0.242 | 0.304 | 0.192 |
| MCM4 C162 (UniProt P33991) | 0.453 | 0.545 | 0.539 | 0.599 |
| MASTL C317 (UniProt Q96GX5) | -0.0394 | 0.295 | 1.5 | 0.25 |
| M6PR C145 (UniProt P20645) | 0.0394 | 0.341 | 0.421 | 0.226 |
| MAPK13 C162 | -0.123 | -0.000518 | -0.453 | -0.223 |
| MATR3 C552 (UniProt P43243) | -0.15 | -0.0755 | -0.709 | -0.118 |
| MACF1 C4825 | 0.0902 | 0.157 | 0.327 | 0.19 |
| MALT1 C91 (UniProt Q9UDY8) | -0.0531 | 0.211 | -0.138 | 0.281 |
| LRRFIP1 C805 (UniProt Q32MZ4) | -0.161 | 0.19 | 0.0593 | 0.376 |
| MACF1 C7344 | -0.543 | -0.592 | -0.483 | -0.293 |
| LRPPRC C930 | 0.18 | -0.245 | -0.194 | -0.29 |
| LUC7L2 C59 (UniProt Q9Y383) | -0.022 | 0.102 | -0.0866 | 0.0916 |
| LSS C636 (UniProt P48449) | -0.838 | 0.278 | -0.625 | 1.11 |
| LYRM7 C97 (UniProt Q5U5X0) | -0.313 | -0.0624 | -0.134 | 0.0476 |
| MBTPS2 C371 (UniProt O43462) | 0.115 | 0.543 | 0.493 | 0.347 |
| MARS1 C38 | 0.091 | 0.363 | -0.0564 | -0.277 |
| MAT2A C104 (UniProt P31153) | -0.139 | 0.229 | 0.215 | -0.339 |
| MCOLN3 C11 (UniProt Q8TDD5) | -0.238 | -0.269 | -0.354 | 0.368 |
| MAT2B C297 (UniProt Q9NZL9) | -0.0228 | -0.015 | 0.0793 | 0.0889 |
| MAU2 C252 (UniProt Q9Y6X3) | 0.409 | -0.08 | 0.411 | 0.121 |
| MAST2 C686 (UniProt Q6P0Q8) | -0.0767 | -0.612 | -0.247 | 0.116 |
| MAST3 C541 (UniProt O60307) | -0.0856 | 0.206 | -0.0287 | 0.369 |
| MCM3AP C439 (UniProt O60318) | -0.21 | 0.307 | -0.0366 | 0.332 |
| LRRC42 C350 (UniProt Q9Y546) | 0.253 | 0.14 | -0.0614 | 0.12 |

Another view of part of the listing above:
Target,log2 mean competition ratio ([1]; 50 µM),log2 mean competition ratio ([1]; 200 µM),log2 mean competition ratio ([2]; 50 µM),log2 mean competition ratio ([2]; 200 µM)
LTBP3 C289,-0.0514,0.146,-0.0394,-0.0854
LRWD1 C249 (UniProt Q9UFC0),-0.0567,0.23,-0.118,-0.0983
MAP3K20 C231 (UniProt Q9NYL2),0.00856,-0.362,0.443,-0.253
